The target in assay [1] is T1, LAP-tagged NCBP2 (Nuclear Cap-Binding Protein 2) (UniProt P52298).
T1 sequence: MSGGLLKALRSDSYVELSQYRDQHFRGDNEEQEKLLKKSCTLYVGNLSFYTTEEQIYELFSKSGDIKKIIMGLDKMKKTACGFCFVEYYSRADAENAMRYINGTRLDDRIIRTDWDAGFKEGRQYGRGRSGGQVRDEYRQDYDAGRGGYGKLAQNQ
Put plainly: co-IP; LAP-tagged bait captured with anti-GFP antibodies on Dynabeads from HeLa cell extracts (20 mM HEPES pH 7.4, 0.5% Triton X-100, 150 mM NaCl), 4°C, 30 min; western blot; with or without RNase A/T1 on the beads; cells treated with siLuc, siNCBP3, siPHAX, siZC3H18, siEIF4A3, siRBM8A, siALYREF or siDDX39B. (In general: In western blotting, separated proteins are transferred to a membrane and probed.)

Sequences of proteins named here, by UniProt entry; tags and fusion partners are left off.
UniProt Q13838: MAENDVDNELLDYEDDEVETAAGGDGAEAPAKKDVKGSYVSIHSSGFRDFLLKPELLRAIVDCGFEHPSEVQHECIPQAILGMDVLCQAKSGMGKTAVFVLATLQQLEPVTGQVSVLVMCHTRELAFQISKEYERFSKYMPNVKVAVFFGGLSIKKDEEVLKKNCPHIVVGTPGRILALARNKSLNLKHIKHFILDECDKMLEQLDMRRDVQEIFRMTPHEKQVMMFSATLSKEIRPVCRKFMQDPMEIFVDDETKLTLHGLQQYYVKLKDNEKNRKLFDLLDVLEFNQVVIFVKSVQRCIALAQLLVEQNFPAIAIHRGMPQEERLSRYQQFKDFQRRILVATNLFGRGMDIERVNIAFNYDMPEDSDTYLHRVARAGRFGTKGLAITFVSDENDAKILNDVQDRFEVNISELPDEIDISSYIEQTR

Assay [2] concerns the target T2, LAP-tagged NCBP3 (C17orf85) (UniProt Q53F19).
T2 sequence: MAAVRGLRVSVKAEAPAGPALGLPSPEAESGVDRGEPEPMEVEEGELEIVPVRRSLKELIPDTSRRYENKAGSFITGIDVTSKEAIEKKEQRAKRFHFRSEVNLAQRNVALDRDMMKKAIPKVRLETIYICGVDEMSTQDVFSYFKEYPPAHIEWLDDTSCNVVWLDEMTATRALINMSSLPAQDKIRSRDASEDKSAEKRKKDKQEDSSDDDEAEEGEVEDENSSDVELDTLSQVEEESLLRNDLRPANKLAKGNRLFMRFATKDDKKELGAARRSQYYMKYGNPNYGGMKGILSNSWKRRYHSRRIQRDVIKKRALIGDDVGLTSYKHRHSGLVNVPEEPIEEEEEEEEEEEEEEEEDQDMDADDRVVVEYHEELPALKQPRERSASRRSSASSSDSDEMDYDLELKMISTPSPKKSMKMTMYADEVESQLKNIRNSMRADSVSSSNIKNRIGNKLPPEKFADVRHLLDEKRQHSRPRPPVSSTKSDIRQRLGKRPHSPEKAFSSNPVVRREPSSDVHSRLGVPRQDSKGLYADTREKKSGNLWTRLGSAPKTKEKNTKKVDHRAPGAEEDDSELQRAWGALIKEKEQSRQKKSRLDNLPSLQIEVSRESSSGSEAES
Described as above.

These are yes or no findings as the source states them, for the method shown. In cells and extracts the contact can be indirect. Some binding calls cover weakened binding; strength is not graded here. Sequences can lack the tags named with a protein.

Take “MLN51/CASC3/BTZ (from UniProt O15234 1-703)”: the binding result in assay [1] is listed as “binds”.

MAGOH (from UniProt P61326 1-146): the binding result in assay [1] was “binds”.

Take DDX39B (from UniProt Q13838 1-428): the binding entry in assay [2] and in assay [1] was “binds” each time.

For EIF4A3 (from UniProt P38919 1-411), the binding entry in assay [1] was “binds”.

(Values after paper PMC7544205.)
